According to PubChem BioAssay AID1487 (National Center for Advancing Translational Sciences (NCATS), 2009):
The other results are listed elsewhere or left out. Further columns of the screen follow, without active or inactive calls. Compounds called inactive in the main read-out are mostly missing here. Potencies come from curve fits of mixed quality, noted in brackets.

Test: qHTS Assay for Modulators of Lamin A Splicing
Details: HeLa LMNA splicing GFP/RFP minigene ratio, 48 h
How it was run: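 Read-out is the ratio of GFP to DsRed2 object intensity, acquired by 488 nm laser-scanning cytometry on HeLa lamin A-EGFP minigene reporter cells. Compound incubation 48 hrs at 37 °C in Opti-MEM with 2% FBS; DMSO 0.5% final.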

[1] = measured here: RFP viability control channel
[2] = measured here: GFP splicing reporter channel

| Structure (SMILES) | AC50 [1] | AC50 [2] |
| --- | --- | --- |
| Cc1ccccc1C(=O)Nc1ccccc1C(=O)NCC(C)C | 1.12 µM [falling, full curve, poor fit] |  |
| COC(=O)C1=C(Nc2ccc(OC)cc2)C=C(C)C(C(=O)OC)C1c1ccc(C)cc1 (centres undefined) | 8.91 µM [rising, partial curve] | 8.91 µM [rising, partial curve] |
| COc1ccccc1NC(=O)CN1C(=O)NC2(CCCCCCC2)C1=O |  | 0.0316 µM [falling, full curve, poor fit] |
| Clc1ccccc1CNc1ncnc2c1nc1n2CCCC1 | 35.5 µM [rising, single point] | 12.6 µM [falling, single point] |
| CCc1ccc(OCCCC(=O)Nc2ccc(S(N)(=O)=O)cc2)cc1 | 0.631 µM [falling, full curve, poor fit] | 7.08 µM [falling, partial curve, poor fit] |
| O=C(N/N=C/C=C/c1ccccc1)c1n[nH]c2c1CCC2 | 7.94 µM [rising, partial curve, poor fit] |  |
| NC1=NC(=O)/C(=C\c2cccnc2)S1 | 7.08 µM [falling, partial curve] |  |
| CCn1c2ccccc2c2cc(NC(=O)c3cc(OC)cc(OC)c3)ccc21 | 1.58 µM [rising, partial curve] | 3.16 µM [rising, single point] |
| O=C1NC2(C=Cc3c(ccc4ccccc34)O2)Oc2ccccc21 (centres undefined) | 35.5 µM [falling, single point] | 20 µM [falling, single point] |
| Cc1[nH]c2c(C)cccc2c1CCNC(=O)c1ccc2c(c1[N+](=O)[O-])C(=O)c1ccccc1C2=O | 35.5 µM [falling, single point] | 35.5 µM [falling, single point] |
| Cc1ccc(N(CC(=O)NN=C2CCN(C)CC2)S(=O)(=O)c2ccc(C)cc2)cc1 | 5.62 µM [falling, single point] |  |
| COc1ccc2[nH]cc(CCNc3ncnc4ccc(-c5ccc6c(c5)OCO6)cc34)c2c1 | 17.8 µM [falling, single point] | 12.6 µM [falling, partial curve] |
| CCN(CC)S(=O)(=O)c1ccc(C(=O)NCCN2C(=O)S/C(=C\c3cccnc3)C2=O)cc1 | 6.31 µM [rising, partial curve, poor fit] |  |
| COc1ccc(CCNC(=O)CSc2nnnn2C)cc1OC |  | 0.0708 µM [falling, full curve, poor fit] |
| Cc1cc(C(=O)N/N=C/c2cc([N+](=O)[O-])cc(C)c2O)n[nH]1 | 5.01 µM [rising, full curve, poor fit] | 0.178 µM [falling, full curve, poor fit] |
| CCOC(=O)c1c(-c2ccccc2)csc1NC(=O)CSc1nnc(C)s1 | 10 µM [rising, partial curve] | 5.62 µM [rising, partial curve] |
| Cc1ccc(S(=O)(=O)Nc2cc(=O)[nH]c(SCC(=O)Nc3ccccc3Cl)n2)cc1 |  | 0.00316 µM [rising, full curve, poor fit] |
| COc1ccc(NC(=O)CN2C(=O)C(C)(C)c3ccccc32)cc1Cl |  | 8.91 µM [falling, partial curve] |
| Cc1ccc(-n2c(Cn3c(C)nc4ccccc43)n[nH]c2=S)cc1 | 11.2 µM [falling, partial curve] |  |
| CC(Sc1nc2ccccc2s1)C(=O)NC1CCCc2ccccc21 (centres undefined) | 20 µM [rising, single point] | 12.6 µM [rising, single point] |
| Cc1cc(C(=O)CSc2nnc(N)s2)c(C)n1CCc1ccc(Cl)cc1 | 35.5 µM [rising, single point] |  |
| O=c1oc2ccccc2c(Nc2ccccc2)c1[N+](=O)[O-] | 17.8 µM [rising, single point] | 35.5 µM [rising, single point] |
| CCc1cc(-c2n[nH]c(C)c2-c2nc3ccccc3n2C)c(O)cc1O | 28.2 µM [falling, partial curve, poor fit] | 0.02 µM [falling, full curve, poor fit] |
| CCCS(=O)(=O)N1CCN(Cc2ccc3c(c2)c2ccccc2n3CC)CC1 | 35.5 µM [rising, single point] | 17.8 µM [rising, single point] |
| COC(=O)Nc1nc(-c2ccccc2)c(C(=O)c2ccccc2)s1 | 0.251 µM [rising, full curve] |  |
| COC(=O)c1ccc(OCC2c3cc(OC)c(OC)cc3CCN2C(=O)c2ccccc2C)cc1 (centres undefined) | 0.0501 µM [falling, full curve, poor fit] | 11.2 µM [falling, partial curve] |
| COc1ccccc1N1CCN(CCCCNC(=O)c2ccc3ccccc3c2)CC1 | 8.91 µM [falling, partial curve, poor fit] | 11.2 µM [falling, partial curve, poor fit] |
| Cc1oc(-c2ccc(F)cc2)nc1CN(Cc1ccccn1)CC1CCCO1 (centres undefined) |  | 0.398 µM [falling, full curve] |

| Structure (SMILES) | AC50 [1] | AC50 [2] |
| --- | --- | --- |
| COc1cc(/C=C2\SC(c3ccc(C)cc3)=NC2=O)cc(OC)c1O | 6.31 µM [rising, partial curve, poor fit] |  |
| CCOc1ccc(C(=O)NCc2nnnn2-c2ccc(C)c(C)c2)cc1OCC | 6.31 µM [falling, single point] |  |
| Fc1cccc(-c2cc3nc4c(c(N5CCC6(CC5)OCCO6)n3n2)CCCC4)c1 |  | 31.6 µM [rising, single point] |
| Cc1cc2nc(/C(C#N)=C/c3ccncc3)[nH]c2cc1C | 17.8 µM [rising, partial curve] |  |
| O=C(CN(c1ccc(Cl)cc1)S(=O)(=O)c1ccc(Cl)c([N+](=O)[O-])c1)NCCc1ccc(F)cc1 |  | 3.98 µM [rising, full curve, poor fit] |
| Cc1ncc(COP(=O)(O)O)c(C=O)c1O |  | 0.0355 µM [falling, full curve, poor fit] |
| Cc1nc2cc(C(=O)NCCC3=CCCCC3)ccc2n1-c1ccc(Br)cc1 |  | 35.5 µM [falling, single point] |
| COc1ccc(-c2nc3ccc([N+](=O)[O-])cc3[nH]2)cc1 | 11.2 µM [rising, partial curve, poor fit] |  |
| Cc1cc(C)cc(Cn2ncc(Cl)c(Cl)c2=O)c1 | 35.5 µM [falling, single point] | 35.5 µM [falling, single point] |
| CCCCNC(=S)N1CCN(c2nc3ccccc3s2)CC1 | 0.0224 µM [falling, full curve, poor fit] |  |
| CCCC(=O)NC(NC(=S)Nc1ccc(N=Nc2ccccc2)cc1)C(Cl)(Cl)Cl (centres undefined) | 7.08 µM [rising, full curve, poor fit] |  |
| O=C(CN(C(=O)Cn1nnc(-c2ccc(F)cc2)n1)C1CCCC1)NC1CCCC1 | 0.0398 µM [rising, full curve, poor fit] |  |
| CC(NC(=O)c1ccco1)C(c1cccs1)N1CCN(c2ccc(F)cc2)CC1 (centres undefined) | 31.6 µM [rising, single point] |  |
| Cc1cc(C)n(-c2ccc(C(=O)Nc3ccc(S(=O)(=O)NCc4ccco4)cc3)cc2)n1 | 3.16 µM [rising, full curve] | 1.12 µM [rising, partial curve] |
| O=C(/C=C/c1ccccc1)/C=C/c1ccccc1 | 17.8 µM [rising, partial curve] | 35.5 µM [falling, partial curve, poor fit] |
| S=C(Nc1cccc(Cl)c1)Nc1cccc2cnccc12 | 17.8 µM [rising, single point] |  |
| Cc1ccc(NS(=O)(=O)c2cc(C(=O)Nc3cccc([N+](=O)[O-])c3)ccc2C)cc1 |  | 35.5 µM [falling, single point] |
| COCC(C)NC(=O)NC1(C(F)(F)F)Oc2ccc(Cl)cc2O1 (centres undefined) | 15.8 µM [rising, single point] |  |
| Cc1c(C(=O)N2CCCc3ccccc32)oc2ccc(S(=O)(=O)N3CCOCC3)cc12 | 14.1 µM [rising, single point] |  |
| COc1ccccc1-n1c(C)cc(/C=C2/C(=N)N3C(=NC2=O)SN=C3S(C)(=O)=O)c1C |  | 0.447 µM [rising, full curve, poor fit] |
| CC(C)(C)NC(=O)C(c1c[nH]c2ccccc12)N(C(=O)Cn1nnc(-c2ccc(F)cc2)n1)c1cccc(O)c1 (centres undefined) | 35.5 µM [rising, single point] |  |
| CC(C)(CO)NC(=O)C(c1ccccc1)c1ccccc1 | 35.5 µM [rising, single point] |  |
| O=C1OC(c2ccc3c(c2)OCO3)N(C(=O)c2ccc(Cl)c(Cl)c2)c2ccccc21 (centres undefined) | 35.5 µM [rising, single point] |  |
| Cc1nc([N+](=O)[O-])cn1-c1nc2ccccn2c1[N+](=O)[O-] | 22.4 µM [rising, partial curve, poor fit] |  |
| Clc1ccc(-c2nnc3c4ccccc4nc(N4CCOCC4)n23)cc1Cl |  | 15.8 µM [falling, partial curve, poor fit] |
| CSCC(=O)NS(=O)(=O)c1ccc(C)cc1 |  | 3.98 µM [falling, partial curve] |
| Cc1ccc(CN(C(=O)c2sc3ccccc3c2Cl)C2CCS(=O)(=O)C2)cc1 (centres undefined) | 35.5 µM [rising, partial curve] | 35.5 µM [rising, single point] |
